Here are results for three molecules from doi:10.1101/2020.08.31.275271.

Sequences of proteins named here, by UniProt entry; tags and fusion partners are left off.
UniProt Q9CAZ0: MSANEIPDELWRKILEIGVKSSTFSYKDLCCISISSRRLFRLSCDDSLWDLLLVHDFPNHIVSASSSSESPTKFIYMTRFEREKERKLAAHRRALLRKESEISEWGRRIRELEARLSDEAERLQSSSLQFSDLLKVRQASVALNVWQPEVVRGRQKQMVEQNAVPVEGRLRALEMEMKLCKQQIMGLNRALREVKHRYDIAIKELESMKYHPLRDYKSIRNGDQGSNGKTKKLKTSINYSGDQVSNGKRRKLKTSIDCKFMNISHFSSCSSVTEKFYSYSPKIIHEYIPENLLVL
UniProt Q94AH6: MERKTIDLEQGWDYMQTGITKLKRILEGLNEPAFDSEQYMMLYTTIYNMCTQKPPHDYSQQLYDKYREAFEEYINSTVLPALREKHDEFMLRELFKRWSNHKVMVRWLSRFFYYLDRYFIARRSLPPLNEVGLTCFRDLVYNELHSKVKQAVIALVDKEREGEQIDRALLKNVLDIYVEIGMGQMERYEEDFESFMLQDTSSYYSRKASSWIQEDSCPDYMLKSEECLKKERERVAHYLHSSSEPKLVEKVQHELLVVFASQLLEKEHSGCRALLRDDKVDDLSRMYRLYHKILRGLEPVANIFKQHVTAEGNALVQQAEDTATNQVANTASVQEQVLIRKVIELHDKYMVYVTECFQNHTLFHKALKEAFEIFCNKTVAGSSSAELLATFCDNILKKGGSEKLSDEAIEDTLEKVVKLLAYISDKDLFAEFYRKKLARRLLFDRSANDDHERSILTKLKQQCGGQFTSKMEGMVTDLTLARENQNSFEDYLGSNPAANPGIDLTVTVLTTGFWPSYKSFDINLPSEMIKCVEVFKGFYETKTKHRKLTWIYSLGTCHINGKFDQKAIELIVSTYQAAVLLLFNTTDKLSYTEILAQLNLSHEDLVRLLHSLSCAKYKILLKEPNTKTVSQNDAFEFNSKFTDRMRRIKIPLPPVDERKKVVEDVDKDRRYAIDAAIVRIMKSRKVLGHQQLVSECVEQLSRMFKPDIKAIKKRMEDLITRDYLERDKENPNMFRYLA
UniProt Q39255: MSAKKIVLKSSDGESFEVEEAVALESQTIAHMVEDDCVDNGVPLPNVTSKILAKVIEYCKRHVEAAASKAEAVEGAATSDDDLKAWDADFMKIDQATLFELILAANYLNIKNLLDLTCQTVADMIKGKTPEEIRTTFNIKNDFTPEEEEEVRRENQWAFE

Where two headings read alike, the source gives them in different places. No constants are given. Whether binding was seen depends on the method and setting. For some of these results: Binding seen in cells or lysates may run through a third protein. Some binding calls cover weakened binding; strength is not graded here. For some of these results: Sequences can lack the tags named with a protein.

Assay [1] deals with F-box protein At1g08710 (GAL4 DNA-binding domain fusion, pDEST-GBKT7) (Arabidopsis thaliana) (UniProt Q9CAZ0). As to the kind of experiment: two-hybrid.
In assay [2] the target is Cullin 1, GAL4 DNA-binding domain fusion (pDEST-GBKT7) (Arabidopsis thaliana) (UniProt Q94AH6). As to the kind of experiment: two-hybrid.
Assay [3] addresses F-box protein At1g08710 (GAL4 DNA-binding domain fusion, pDEST-GBKT7) (Arabidopsis thaliana) (UniProt Q9CAZ0). Description: two-hybrid. This is another data set of the same source.
The target of assay [4] is F-box protein At1g08710, N-YFP fusion (pSAT4-DEST-N, 1-174 N-YFP) (Arabidopsis thaliana) (UniProt Q9CAZ0). As to the kind of experiment: split reporter.

With “ASK1 (Arabidopsis SKP1 like protein 1), GAL4 activation domain fusion (pDEST-GADT7) (from UniProt Q39255 1-160)”, the binding entry in assay [1] and in assay [2] was “binds” in each case.

B1: ALTERATION/… IN ACTIVATION 2B (ADA2b), GAL4 activation domain fusion (pDEST-GADT7) (protein, UniProt Q9ATB4 1-487)
chain: MGRSRGNFQNFEDPTQRTRKKKNAANVENFESTSLVPGAEGGGKYNCDYCQKDITGKIRIKCAVCPDFDLCIECMSVGAEITPHKCDHPYRVMGNLTFPLICPDWSADDEMLLLEGLEIYGLGNWAEVAEHVGTKSKEQCLEHYRNIYLNSPFFPLPDMSHVAGKNRKELQAMAKGRIDDKKAEQNMKEEYPFSPPKVKVEDTQKESFVDRSFGGKKPVSTSVNNSLVELSNYNQKREEFDPEYDNDAEQLLAEMEFKENDTPEEHELKLRVLRIYSKRLDERKRRKEFIIERNLLYPNPFEKDLSQEEKVQCRRLDVFMRFHSKEEHDELLRNVVSEYRMVKRLKDLKEAQVAGCRSTAEAERYLGRKRKRENEEGMNRGKESGQFGQIAGEMGSRPPVQASSSYVNDLDLIGFTESQLLSESEKRLCSEVKLVPPVYLQMQQVMSHEIFKGNVTKKSDAYSLFKIDPTKVDRVYDMLVKKGIAQL
Take B1: the binding entry in assay [3] is recorded as “binds”.

B2: ADA2b, C-YFP fusion (pSAT5-DEST-C, 175-END C-YFP) (protein, UniProt Q9ATB4 1-487)
chain: B1 chain
Turning to B2, the binding result in assay [4] is “binds”.
